Reference: patent US20230201187A1, “USE OF NAD+ PRECURSORS, STING INHIBITORS, AND FXR AGONISTS FOR INHIBITING SARS-COV-2 (COVID-19)-INDUCED CYTOKINE RELEASE” (Georgetown University, priority 2020, published 2023)
At least one structure is not confirmed: it was looked up by name or label, or the drawing left a doubt.

Tests used:
Format in all cases: in vivo
TLR4 = TLR4 mRNA expression in mice with diet-induced obesity (Example 5); conditions: mice with diet-induced obesity (high-fat "milkfat" diet); FIG. 11C
ICAM1 = ICAM1 mRNA expression in mice with diet-induced obesity (Example 5); conditions: mice with diet-induced obesity (high-fat "milkfat" diet); FIG. 11D
cGAS = cGAS mRNA expression in mice with diet-induced obesity (Example 5); conditions: mice with diet-induced obesity (high-fat "milkfat" diet); FIG. 11B
STING = STING mRNA expression in mice with diet-induced obesity (Example 5); conditions: mice with diet-induced obesity (high-fat "milkfat" diet); FIG. 11A

CC[C@H]1[C@@H](O)[C@@H]2[C@H](CC[C@]3(C)[C@@H]([C@H](C)CCC(=O)O)CC[C@@H]23)[C@@]2(C)CC[C@@H](O)C[C@@H]12 [obeticholic acid, 6α-ethyl-chenodeoxycholic acid]
prevented activation: activation of TLR4 (mRNA expression) (TLR4) | activation of ICAM1 (mRNA expression) (ICAM1) | activation of cGAS (mRNA expression) (cGAS) | activation of STING (mRNA expression) (STING)
